The results in this text go back to paper PMC10774444, “BPG4 regulates chloroplast development and homeostasis by suppressing GLK transcription factors and involving light and brassinosteroid signaling”.

Chains of the proteins cited; added tags and fusions are not shown. Lines headed by an entry give the natural chain unless they say otherwise; changes in a name come on top.
UniProt Q9LN63: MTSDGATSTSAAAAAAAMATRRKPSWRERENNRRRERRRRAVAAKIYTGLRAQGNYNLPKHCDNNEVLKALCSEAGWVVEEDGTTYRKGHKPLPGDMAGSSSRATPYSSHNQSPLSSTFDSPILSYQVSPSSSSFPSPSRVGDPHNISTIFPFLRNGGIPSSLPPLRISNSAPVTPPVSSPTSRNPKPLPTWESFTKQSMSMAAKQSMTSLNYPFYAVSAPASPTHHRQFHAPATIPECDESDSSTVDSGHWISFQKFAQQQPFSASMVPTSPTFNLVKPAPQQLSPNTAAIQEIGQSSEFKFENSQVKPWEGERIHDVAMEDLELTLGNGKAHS

For at least one entry, the source does not settle the construct or the ends of the probe. For part of these data: No signal at the amounts used counts as a negative. For part of these data: At least one verdict rests on a figure or table, not on a statement of the authors. For part of these data: The comparison behind a weaker result is the experiment's own reference, which may not be listed here. For part of these data: Tags and fusion partners may be left off the protein sequences shown.

In one series the target is MBP-BES1 DBD (UniProt Q9LN63). In words: EMSA. To be noted: GLK1 EMSA: 10 mM Tris-HCl pH 8.0, 50 mM KCl, 10 mM EDTA, 2.5% glycerol, 1 mM DTT, 0.05 ug/ul poly(dI-dC), 5 pmol probe; recombinant protein; protein details: MBP; label: FAM. (In general: A gel shift assay detects complexes by their altered migration in electrophoresis.)
A further series has as its target T1, GST-GLK1 (UniProt Q9SIV3).
T1 sequence (looked up): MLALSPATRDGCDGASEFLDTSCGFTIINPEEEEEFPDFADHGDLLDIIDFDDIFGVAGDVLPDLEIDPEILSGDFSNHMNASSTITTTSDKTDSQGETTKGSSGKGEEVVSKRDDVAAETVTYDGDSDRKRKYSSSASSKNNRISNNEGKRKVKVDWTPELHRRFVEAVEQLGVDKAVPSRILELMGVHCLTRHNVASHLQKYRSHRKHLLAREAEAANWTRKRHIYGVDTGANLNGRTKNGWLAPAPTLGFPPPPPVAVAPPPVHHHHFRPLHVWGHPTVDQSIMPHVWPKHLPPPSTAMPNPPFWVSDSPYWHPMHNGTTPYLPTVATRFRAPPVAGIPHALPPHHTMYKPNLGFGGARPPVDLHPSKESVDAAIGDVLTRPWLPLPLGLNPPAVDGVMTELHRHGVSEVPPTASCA
In words: EMSA. The conditions noted are these: plus MBP-BPG4 (full-length BPG4, molar ratio to GST-GLK1 1.4, 2.7, 5.4), dose-dependent decrease; GLK1 EMSA: 10 mM Tris-HCl pH 8.0, 50 mM KCl, 10 mM EDTA, 2.5% glycerol, 1 mM DTT, 0.05 ug/ul poly(dI-dC), 5 pmol probe; recombinant protein; residues 1-420; protein details: N-term GST (pGEX-6P-3); label: FAM.

Turning to “TGATCAATCTCCAAAAAAGGGCTTCTGGCC (double strand) [BPG4 mG-box-2]”, the binding result with MBP-BES1 DBD was “no binding”.

As for “TTTAGATCCCATGATTCTCAACACGACTGA (double strand) [CAO-probe]”, the binding result with GST-GLK1 was “binds more weakly”.

On to “GGGGCCATGGATAAAAAAGAGGATGCGTGA (double strand) [BPG4 mG-box-1]”, for which the binding result in the series with MBP-BES1 DBD is reported as “no binding”.
